In paper PMC6599078:
Results are given in words; binding and its absence hold for the method and conditions named. In cells and extracts the contact can be indirect. Some results given as binding are weak or reduced against the parent protein; the word gives no strength. For some of these results: Sequences can lack the tags named with a protein.

By UniProt entry, the sequences of proteins in these tests, tags left out. Residues count along the entry.
UniProt Q99835, residues 28-787: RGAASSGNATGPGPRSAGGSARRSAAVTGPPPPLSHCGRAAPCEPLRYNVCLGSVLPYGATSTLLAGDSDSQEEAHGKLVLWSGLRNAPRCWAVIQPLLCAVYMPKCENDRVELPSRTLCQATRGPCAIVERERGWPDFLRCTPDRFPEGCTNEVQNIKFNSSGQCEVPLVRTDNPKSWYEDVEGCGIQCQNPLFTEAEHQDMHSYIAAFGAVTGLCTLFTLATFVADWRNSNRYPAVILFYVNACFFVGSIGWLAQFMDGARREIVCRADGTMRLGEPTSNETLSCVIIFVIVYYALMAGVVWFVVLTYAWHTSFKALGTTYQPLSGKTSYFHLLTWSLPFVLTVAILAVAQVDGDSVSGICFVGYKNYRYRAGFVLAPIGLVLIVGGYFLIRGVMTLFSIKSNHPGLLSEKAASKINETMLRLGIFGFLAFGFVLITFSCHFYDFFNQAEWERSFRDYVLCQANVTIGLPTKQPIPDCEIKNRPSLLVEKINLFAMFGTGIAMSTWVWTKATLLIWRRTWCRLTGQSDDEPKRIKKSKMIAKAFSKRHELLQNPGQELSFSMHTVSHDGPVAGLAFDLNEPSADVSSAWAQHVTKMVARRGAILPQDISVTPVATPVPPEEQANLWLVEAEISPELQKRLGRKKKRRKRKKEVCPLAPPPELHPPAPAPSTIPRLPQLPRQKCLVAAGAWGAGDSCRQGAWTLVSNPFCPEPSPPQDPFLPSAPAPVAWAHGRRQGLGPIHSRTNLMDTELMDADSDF
UniProt P54252: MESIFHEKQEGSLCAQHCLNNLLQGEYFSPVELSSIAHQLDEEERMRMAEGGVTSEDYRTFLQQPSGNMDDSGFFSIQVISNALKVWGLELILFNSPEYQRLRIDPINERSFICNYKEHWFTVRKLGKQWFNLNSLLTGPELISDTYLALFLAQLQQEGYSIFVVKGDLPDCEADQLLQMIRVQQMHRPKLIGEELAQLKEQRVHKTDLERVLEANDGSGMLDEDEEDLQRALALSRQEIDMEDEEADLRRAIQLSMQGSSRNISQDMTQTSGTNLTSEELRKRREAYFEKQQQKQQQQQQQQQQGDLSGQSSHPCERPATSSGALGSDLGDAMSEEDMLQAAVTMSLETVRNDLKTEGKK
UniProt P25098: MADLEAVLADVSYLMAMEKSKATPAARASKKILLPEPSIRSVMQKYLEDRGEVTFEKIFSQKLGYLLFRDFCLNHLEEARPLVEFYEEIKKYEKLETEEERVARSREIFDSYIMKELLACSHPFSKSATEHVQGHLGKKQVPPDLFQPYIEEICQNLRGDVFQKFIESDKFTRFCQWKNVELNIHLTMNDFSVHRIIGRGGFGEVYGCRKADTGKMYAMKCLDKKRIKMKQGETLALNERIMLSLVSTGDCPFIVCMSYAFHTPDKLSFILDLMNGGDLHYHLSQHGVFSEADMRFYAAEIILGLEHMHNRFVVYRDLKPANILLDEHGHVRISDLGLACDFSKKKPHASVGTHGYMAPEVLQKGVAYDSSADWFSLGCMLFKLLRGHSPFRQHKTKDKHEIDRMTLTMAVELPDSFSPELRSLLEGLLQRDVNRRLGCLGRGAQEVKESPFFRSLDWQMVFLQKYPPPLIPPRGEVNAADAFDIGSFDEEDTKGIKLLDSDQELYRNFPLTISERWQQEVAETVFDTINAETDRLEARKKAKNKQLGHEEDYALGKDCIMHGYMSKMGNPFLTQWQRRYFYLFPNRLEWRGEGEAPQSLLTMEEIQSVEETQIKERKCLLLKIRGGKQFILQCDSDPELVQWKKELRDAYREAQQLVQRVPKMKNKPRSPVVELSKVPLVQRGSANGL

Tests used:
Flag-PTCH1 = target: T1, Flag-PTCH1 (UniProt Q13635); assay: co-IP; Flag-PTCH1 or Flag-SMO immunoprecipitated from MCF7 cells with or without TSPAN8 overexpression, with or without ATXN3 shRNA; cells treated with 100 ng/ml SHH for 6 h
T1 sequence: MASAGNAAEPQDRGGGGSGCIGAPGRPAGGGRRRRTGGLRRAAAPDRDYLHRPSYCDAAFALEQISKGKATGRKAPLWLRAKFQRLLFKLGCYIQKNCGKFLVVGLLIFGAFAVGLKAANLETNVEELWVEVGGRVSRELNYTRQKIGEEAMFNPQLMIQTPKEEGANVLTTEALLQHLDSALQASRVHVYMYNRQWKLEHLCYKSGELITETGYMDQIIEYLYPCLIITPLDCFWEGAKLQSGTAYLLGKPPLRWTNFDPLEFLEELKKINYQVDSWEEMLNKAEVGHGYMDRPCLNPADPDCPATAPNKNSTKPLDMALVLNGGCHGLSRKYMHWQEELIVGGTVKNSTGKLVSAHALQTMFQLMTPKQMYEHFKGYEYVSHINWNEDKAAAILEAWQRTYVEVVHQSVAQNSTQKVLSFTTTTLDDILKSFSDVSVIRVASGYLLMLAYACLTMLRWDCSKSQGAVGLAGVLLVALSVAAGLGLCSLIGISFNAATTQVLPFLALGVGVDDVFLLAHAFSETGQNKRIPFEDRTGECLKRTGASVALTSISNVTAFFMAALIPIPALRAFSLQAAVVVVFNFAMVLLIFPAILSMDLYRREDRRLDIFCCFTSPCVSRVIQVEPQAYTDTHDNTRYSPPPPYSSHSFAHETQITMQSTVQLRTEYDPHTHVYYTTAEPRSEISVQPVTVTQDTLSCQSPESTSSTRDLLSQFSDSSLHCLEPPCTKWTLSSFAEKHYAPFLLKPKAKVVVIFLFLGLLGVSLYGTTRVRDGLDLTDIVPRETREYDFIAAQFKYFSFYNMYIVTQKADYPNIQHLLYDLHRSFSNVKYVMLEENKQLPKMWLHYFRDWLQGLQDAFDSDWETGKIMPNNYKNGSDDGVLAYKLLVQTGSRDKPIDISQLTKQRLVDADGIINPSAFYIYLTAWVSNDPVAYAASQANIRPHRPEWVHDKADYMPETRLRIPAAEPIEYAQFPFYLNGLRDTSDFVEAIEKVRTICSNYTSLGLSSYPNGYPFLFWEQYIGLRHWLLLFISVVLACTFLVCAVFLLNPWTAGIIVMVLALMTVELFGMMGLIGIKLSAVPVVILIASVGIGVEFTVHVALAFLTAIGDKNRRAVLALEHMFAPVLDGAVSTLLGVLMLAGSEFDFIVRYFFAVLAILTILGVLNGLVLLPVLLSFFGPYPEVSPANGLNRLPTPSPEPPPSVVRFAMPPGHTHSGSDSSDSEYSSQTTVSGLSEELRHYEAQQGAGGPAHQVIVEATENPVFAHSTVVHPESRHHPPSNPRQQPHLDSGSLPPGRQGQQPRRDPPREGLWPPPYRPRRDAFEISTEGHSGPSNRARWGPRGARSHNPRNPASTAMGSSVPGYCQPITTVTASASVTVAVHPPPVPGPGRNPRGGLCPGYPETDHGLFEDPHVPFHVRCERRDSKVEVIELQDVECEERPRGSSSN

Flag-SMO = Flag-SMO (UniProt Q99835); assay: as above
Flag-ATXN3 = Flag-ATXN3 (UniProt P54252); assay: co-IP; Flag-ATXN3 co-transfected with GFP or GFP-TSPAN8, or with control siRNA or TSPAN8 siRNA, in HEK293T cells (text: MCF-7 cells); immunoprecipitation and immunoblotting
HA-TSPAN8 = target: T2, HA-TSPAN8 (UniProt P19075); assay: co-IP; co-immunoprecipitation of HA-TSPAN8 with SHH and PTCH1 (Supplementary Fig. 4a, b); cells lysed in RIPA buffer at 4 °C, magnetic beads 12 h at 4 °C; cell line not stated
T2 sequence: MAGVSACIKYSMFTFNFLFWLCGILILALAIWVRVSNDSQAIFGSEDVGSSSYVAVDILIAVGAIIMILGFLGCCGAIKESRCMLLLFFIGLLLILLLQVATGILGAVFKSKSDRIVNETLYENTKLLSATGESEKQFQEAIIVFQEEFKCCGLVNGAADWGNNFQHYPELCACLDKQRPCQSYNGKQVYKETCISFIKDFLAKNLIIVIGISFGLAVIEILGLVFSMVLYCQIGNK

Molecule: GRK2 protein kinase (from UniProt P25098 1-689) (enzyme)
- binding (Flag-PTCH1): binds
- binding (Flag-SMO): binds

B1: PTCH1 (found with Flag-ATXN3) (receptor, UniProt Q13635 1-1447)
chain: MASAGNAAEPQDRGGGGSGCIGAPGRPAGGGRRRRTGGLRRAAAPDRDYLHRPSYCDAAFALEQISKGKATGRKAPLWLRAKFQRLLFKLGCYIQKNCGKFLVVGLLIFGAFAVGLKAANLETNVEELWVEVGGRVSRELNYTRQKIGEEAMFNPQLMIQTPKEEGANVLTTEALLQHLDSALQASRVHVYMYNRQWKLEHLCYKSGELITETGYMDQIIEYLYPCLIITPLDCFWEGAKLQSGTAYLLGKPPLRWTNFDPLEFLEELKKINYQVDSWEEMLNKAEVGHGYMDRPCLNPADPDCPATAPNKNSTKPLDMALVLNGGCHGLSRKYMHWQEELIVGGTVKNSTGKLVSAHALQTMFQLMTPKQMYEHFKGYEYVSHINWNEDKAAAILEAWQRTYVEVVHQSVAQNSTQKVLSFTTTTLDDILKSFSDVSVIRVASGYLLMLAYACLTMLRWDCSKSQGAVGLAGVLLVALSVAAGLGLCSLIGISFNAATTQVLPFLALGVGVDDVFLLAHAFSETGQNKRIPFEDRTGECLKRTGASVALTSISNVTAFFMAALIPIPALRAFSLQAAVVVVFNFAMVLLIFPAILSMDLYRREDRRLDIFCCFTSPCVSRVIQVEPQAYTDTHDNTRYSPPPPYSSHSFAHETQITMQSTVQLRTEYDPHTHVYYTTAEPRSEISVQPVTVTQDTLSCQSPESTSSTRDLLSQFSDSSLHCLEPPCTKWTLSSFAEKHYAPFLLKPKAKVVVIFLFLGLLGVSLYGTTRVRDGLDLTDIVPRETREYDFIAAQFKYFSFYNMYIVTQKADYPNIQHLLYDLHRSFSNVKYVMLEENKQLPKMWLHYFRDWLQGLQDAFDSDWETGKIMPNNYKNGSDDGVLAYKLLVQTGSRDKPIDISQLTKQRLVDADGIINPSAFYIYLTAWVSNDPVAYAASQANIRPHRPEWVHDKADYMPETRLRIPAAEPIEYAQFPFYLNGLRDTSDFVEAIEKVRTICSNYTSLGLSSYPNGYPFLFWEQYIGLRHWLLLFISVVLACTFLVCAVFLLNPWTAGIIVMVLALMTVELFGMMGLIGIKLSAVPVVILIASVGIGVEFTVHVALAFLTAIGDKNRRAVLALEHMFAPVLDGAVSTLLGVLMLAGSEFDFIVRYFFAVLAILTILGVLNGLVLLPVLLSFFGPYPEVSPANGLNRLPTPSPEPPPSVVRFAMPPGHTHSGSDSSDSEYSSQTTVSGLSEELRHYEAQQGAGGPAHQVIVEATENPVFAHSTVVHPESRHHPPSNPRQQPHLDSGSLPPGRQGQQPRRDPPREGLWPPPYRPRRDAFEISTEGHSGPSNRARWGPRGARSHNPRNPASTAMGSSVPGYCQPITTVTASASVTVAVHPPPVPGPGRNPRGGLCPGYPETDHGLFEDPHVPFHVRCERRDSKVEVIELQDVECEERPRGSSSN
- binding (Flag-ATXN3): binds

B2: PTCH1 (found with HA-TSPAN8) (receptor, UniProt Q13635 1-1447)
chain: MASAGNAAEPQDRGGGGSGCIGAPGRPAGGGRRRRTGGLRRAAAPDRDYLHRPSYCDAAFALEQISKGKATGRKAPLWLRAKFQRLLFKLGCYIQKNCGKFLVVGLLIFGAFAVGLKAANLETNVEELWVEVGGRVSRELNYTRQKIGEEAMFNPQLMIQTPKEEGANVLTTEALLQHLDSALQASRVHVYMYNRQWKLEHLCYKSGELITETGYMDQIIEYLYPCLIITPLDCFWEGAKLQSGTAYLLGKPPLRWTNFDPLEFLEELKKINYQVDSWEEMLNKAEVGHGYMDRPCLNPADPDCPATAPNKNSTKPLDMALVLNGGCHGLSRKYMHWQEELIVGGTVKNSTGKLVSAHALQTMFQLMTPKQMYEHFKGYEYVSHINWNEDKAAAILEAWQRTYVEVVHQSVAQNSTQKVLSFTTTTLDDILKSFSDVSVIRVASGYLLMLAYACLTMLRWDCSKSQGAVGLAGVLLVALSVAAGLGLCSLIGISFNAATTQVLPFLALGVGVDDVFLLAHAFSETGQNKRIPFEDRTGECLKRTGASVALTSISNVTAFFMAALIPIPALRAFSLQAAVVVVFNFAMVLLIFPAILSMDLYRREDRRLDIFCCFTSPCVSRVIQVEPQAYTDTHDNTRYSPPPPYSSHSFAHETQITMQSTVQLRTEYDPHTHVYYTTAEPRSEISVQPVTVTQDTLSCQSPESTSSTRDLLSQFSDSSLHCLEPPCTKWTLSSFAEKHYAPFLLKPKAKVVVIFLFLGLLGVSLYGTTRVRDGLDLTDIVPRETREYDFIAAQFKYFSFYNMYIVTQKADYPNIQHLLYDLHRSFSNVKYVMLEENKQLPKMWLHYFRDWLQGLQDAFDSDWETGKIMPNNYKNGSDDGVLAYKLLVQTGSRDKPIDISQLTKQRLVDADGIINPSAFYIYLTAWVSNDPVAYAASQANIRPHRPEWVHDKADYMPETRLRIPAAEPIEYAQFPFYLNGLRDTSDFVEAIEKVRTICSNYTSLGLSSYPNGYPFLFWEQYIGLRHWLLLFISVVLACTFLVCAVFLLNPWTAGIIVMVLALMTVELFGMMGLIGIKLSAVPVVILIASVGIGVEFTVHVALAFLTAIGDKNRRAVLALEHMFAPVLDGAVSTLLGVLMLAGSEFDFIVRYFFAVLAILTILGVLNGLVLLPVLLSFFGPYPEVSPANGLNRLPTPSPEPPPSVVRFAMPPGHTHSGSDSSDSEYSSQTTVSGLSEELRHYEAQQGAGGPAHQVIVEATENPVFAHSTVVHPESRHHPPSNPRQQPHLDSGSLPPGRQGQQPRRDPPREGLWPPPYRPRRDAFEISTEGHSGPSNRARWGPRGARSHNPRNPASTAMGSSVPGYCQPITTVTASASVTVAVHPPPVPGPGRNPRGGLCPGYPETDHGLFEDPHVPFHVRCERRDSKVEVIELQDVECEERPRGSSSN
- binding (HA-TSPAN8): binds
